Experimental data reported in paper PMC5047623.
No constants are given. Whether binding was seen depends on the method and setting. For some assays here: Binding seen in cells or lysates may run through a third protein. Some entries that bind do so weakly or less than the wild type. For some assays here: Where a sequence is shown, tags or fusion partners need not be part of it.

Chains of the proteins cited; added tags and fusions are not shown. Lines headed by an entry give the natural chain unless they say otherwise; changes in a name come on top. Residues count along the entry.
UniProt P08648: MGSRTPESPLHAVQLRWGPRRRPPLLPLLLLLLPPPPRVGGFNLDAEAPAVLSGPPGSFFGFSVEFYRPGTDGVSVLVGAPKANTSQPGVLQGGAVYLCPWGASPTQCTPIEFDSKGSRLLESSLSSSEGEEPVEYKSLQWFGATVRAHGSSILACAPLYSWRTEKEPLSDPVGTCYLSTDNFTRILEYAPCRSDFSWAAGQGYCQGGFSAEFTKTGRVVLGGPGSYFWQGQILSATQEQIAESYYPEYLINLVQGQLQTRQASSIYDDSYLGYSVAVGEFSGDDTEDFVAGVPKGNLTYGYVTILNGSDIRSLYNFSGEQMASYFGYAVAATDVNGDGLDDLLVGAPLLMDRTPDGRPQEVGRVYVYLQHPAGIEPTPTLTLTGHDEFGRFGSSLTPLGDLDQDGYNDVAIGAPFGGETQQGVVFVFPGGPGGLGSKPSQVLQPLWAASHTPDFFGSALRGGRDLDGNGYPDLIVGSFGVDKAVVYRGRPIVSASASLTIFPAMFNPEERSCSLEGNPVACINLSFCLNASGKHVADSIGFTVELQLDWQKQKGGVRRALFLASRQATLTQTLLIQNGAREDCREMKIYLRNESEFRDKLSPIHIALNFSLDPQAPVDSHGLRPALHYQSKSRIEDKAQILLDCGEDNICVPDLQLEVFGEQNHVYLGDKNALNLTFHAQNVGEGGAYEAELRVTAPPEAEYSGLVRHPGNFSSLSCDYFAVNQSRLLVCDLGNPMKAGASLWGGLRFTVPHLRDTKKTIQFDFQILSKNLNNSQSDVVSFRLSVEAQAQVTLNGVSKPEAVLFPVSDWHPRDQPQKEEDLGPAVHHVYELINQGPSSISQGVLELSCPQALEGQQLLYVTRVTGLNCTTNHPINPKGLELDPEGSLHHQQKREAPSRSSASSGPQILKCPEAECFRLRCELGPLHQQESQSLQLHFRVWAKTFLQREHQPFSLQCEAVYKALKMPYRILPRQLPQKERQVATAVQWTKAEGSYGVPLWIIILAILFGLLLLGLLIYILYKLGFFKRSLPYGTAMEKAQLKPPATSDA
UniProt P05556: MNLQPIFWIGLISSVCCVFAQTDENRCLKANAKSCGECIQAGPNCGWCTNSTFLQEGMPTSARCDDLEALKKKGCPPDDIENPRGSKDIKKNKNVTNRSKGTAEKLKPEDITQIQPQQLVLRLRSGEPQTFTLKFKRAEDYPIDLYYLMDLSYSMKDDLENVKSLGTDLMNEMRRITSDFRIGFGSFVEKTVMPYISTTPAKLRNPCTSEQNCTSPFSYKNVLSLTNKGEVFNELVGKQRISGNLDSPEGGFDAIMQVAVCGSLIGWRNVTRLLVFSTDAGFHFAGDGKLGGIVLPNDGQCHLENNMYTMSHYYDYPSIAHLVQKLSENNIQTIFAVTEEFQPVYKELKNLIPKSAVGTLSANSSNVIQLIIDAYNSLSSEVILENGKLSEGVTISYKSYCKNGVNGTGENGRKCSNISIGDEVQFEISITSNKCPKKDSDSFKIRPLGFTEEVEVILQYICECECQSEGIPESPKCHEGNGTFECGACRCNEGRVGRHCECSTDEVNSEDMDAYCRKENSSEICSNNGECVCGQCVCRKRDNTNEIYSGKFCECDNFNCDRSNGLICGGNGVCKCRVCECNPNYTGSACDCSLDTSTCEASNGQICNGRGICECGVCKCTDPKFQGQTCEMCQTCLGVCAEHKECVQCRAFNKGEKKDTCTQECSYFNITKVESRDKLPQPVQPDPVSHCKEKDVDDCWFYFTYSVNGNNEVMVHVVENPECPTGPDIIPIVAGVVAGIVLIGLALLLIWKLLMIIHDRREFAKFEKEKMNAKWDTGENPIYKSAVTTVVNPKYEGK
UniProt P06756: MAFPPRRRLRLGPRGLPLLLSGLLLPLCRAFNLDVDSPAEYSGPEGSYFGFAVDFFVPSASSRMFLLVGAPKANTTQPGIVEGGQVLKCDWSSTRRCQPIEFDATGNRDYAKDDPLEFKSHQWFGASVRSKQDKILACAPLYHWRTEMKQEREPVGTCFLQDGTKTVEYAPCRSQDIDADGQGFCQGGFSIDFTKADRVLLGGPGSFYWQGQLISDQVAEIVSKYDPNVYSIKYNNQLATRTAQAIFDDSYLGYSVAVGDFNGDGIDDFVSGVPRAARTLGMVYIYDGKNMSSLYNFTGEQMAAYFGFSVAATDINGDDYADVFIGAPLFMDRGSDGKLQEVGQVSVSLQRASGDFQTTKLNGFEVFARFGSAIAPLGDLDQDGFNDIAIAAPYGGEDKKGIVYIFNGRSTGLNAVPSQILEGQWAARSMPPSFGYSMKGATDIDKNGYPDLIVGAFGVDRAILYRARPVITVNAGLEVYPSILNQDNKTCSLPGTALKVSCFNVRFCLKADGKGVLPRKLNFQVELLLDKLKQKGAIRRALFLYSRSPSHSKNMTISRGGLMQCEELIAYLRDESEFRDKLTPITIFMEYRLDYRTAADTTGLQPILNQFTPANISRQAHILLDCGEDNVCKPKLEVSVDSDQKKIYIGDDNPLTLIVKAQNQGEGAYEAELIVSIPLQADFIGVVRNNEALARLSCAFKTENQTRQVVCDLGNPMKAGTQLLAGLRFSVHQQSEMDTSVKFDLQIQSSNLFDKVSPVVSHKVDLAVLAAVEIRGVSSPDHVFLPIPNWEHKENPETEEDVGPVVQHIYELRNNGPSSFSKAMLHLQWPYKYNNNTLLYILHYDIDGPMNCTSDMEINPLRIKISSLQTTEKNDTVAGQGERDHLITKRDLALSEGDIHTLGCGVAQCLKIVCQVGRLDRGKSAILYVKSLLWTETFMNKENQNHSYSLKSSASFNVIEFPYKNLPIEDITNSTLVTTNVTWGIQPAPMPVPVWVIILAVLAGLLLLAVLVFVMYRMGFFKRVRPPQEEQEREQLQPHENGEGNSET
UniProt P05106: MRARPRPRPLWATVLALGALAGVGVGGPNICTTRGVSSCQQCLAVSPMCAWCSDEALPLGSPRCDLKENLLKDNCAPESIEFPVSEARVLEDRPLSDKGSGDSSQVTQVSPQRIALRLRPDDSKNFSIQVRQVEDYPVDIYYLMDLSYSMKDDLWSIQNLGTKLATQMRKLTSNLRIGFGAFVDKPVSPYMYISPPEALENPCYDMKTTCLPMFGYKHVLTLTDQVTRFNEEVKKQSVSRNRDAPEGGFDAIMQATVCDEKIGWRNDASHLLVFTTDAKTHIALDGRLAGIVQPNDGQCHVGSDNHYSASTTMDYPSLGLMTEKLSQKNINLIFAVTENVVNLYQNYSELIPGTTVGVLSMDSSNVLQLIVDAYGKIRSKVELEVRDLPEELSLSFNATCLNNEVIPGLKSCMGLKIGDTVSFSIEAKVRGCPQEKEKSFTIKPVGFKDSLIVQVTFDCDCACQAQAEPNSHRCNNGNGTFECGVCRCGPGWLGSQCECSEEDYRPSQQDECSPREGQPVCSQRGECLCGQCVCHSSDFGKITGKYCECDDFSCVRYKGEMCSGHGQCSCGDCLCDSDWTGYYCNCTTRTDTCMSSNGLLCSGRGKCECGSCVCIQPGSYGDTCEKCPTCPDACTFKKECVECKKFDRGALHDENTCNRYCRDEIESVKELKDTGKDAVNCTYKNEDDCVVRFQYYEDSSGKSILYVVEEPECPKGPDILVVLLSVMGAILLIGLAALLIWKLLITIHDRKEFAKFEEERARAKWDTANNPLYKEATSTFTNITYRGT
UniProt Q02763, residues 23-1124: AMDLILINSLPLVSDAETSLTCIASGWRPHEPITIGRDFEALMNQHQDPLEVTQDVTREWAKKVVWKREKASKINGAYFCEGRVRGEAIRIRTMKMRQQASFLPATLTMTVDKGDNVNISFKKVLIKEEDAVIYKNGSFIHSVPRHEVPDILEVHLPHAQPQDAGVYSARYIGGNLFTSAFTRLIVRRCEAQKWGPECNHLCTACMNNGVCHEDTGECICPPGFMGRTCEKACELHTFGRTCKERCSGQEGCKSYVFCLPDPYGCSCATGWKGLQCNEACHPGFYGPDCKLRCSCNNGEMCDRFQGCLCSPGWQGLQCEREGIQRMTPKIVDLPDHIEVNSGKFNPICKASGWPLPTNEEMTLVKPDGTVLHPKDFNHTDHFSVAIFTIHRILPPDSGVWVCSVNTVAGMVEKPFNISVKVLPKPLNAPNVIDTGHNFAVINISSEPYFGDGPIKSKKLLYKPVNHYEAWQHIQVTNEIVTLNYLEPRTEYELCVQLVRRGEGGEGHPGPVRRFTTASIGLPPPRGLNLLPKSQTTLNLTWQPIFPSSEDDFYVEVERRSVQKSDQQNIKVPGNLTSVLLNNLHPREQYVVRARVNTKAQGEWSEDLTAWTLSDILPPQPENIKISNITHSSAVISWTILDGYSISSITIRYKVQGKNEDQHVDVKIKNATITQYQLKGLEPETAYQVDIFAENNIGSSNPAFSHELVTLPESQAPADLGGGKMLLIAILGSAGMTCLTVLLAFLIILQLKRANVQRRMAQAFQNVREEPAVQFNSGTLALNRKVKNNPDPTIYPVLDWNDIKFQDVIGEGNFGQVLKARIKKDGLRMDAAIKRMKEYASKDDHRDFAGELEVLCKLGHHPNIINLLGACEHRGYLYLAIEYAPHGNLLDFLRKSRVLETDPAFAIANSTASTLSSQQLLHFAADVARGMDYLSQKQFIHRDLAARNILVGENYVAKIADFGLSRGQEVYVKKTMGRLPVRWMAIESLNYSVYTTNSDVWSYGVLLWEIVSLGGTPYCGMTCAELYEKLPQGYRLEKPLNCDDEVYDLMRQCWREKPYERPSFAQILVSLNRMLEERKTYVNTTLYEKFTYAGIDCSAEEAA

How the values were obtained:
[1] = molecular target: full-length flag-tagged integrin α5ß1 (human) (UniProt P08648+P05556); assay: co-IP; transiently transfected HEK293 cells, no Tie2 or integrin ligands added; 1 mg lysate, IP with anti-Flag antibody and Protein-A beads overnight; blot anti-HA, anti-myc or anti-GFP
[2] = molecular target: full-length flag-tagged integrin αVß3 (human) (UniProt P06756+P05106); assay: as above
[3] = molecular target: T1, Tie1(1–4)-Fc, region of Tie1 equivalent to the Tie2 ligand-binding domain (excluding the fibronectin repeats) (UniProt P35590); assay: pull-down; competition: 33nM Tie1(1–4)-Fc and 12.5nM α5ß1 ectodomain with 100nM or 600nM untagged Tie2(1–4); Tie1(1–4)-Fc precipitated with Protein-A sepharose; blot anti-α5; both purified
T1 sequence: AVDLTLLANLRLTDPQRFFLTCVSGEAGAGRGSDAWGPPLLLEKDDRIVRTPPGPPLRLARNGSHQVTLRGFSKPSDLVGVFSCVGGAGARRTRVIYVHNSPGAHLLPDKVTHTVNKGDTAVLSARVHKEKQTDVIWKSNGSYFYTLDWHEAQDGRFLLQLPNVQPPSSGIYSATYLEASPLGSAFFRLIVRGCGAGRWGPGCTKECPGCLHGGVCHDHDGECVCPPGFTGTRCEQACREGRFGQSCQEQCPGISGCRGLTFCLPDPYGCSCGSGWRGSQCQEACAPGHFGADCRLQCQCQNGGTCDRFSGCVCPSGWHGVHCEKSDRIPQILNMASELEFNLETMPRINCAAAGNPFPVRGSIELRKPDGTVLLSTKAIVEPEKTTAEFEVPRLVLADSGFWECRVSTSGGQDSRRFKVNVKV

[4] = molecular target: T1, Tie1(1–4)-Fc, region of Tie1 equivalent to the Tie2 ligand-binding domain (excluding the fibronectin repeats); assay: pull-down; pure protein immunoprecipitation: purified proteins (α5ß1 12.5nM, Tie(1–4)-Fc 33nM, Tie2 full ectodomain 24nM, Ang-RBD-Fc 50nM) in 1 mL HBST with 25 μL ProteinA beads overnight; with or without fibronectin (5μg/mL); Fc-tagged protein precipitated; western blot; both purified

binding [1] | binding [2] | binding [3] | binding [4] | Substance
binds | binds | – | – | full-length HA-tagged Tie1 receptor (from UniProt P35590 22-1138)
– | binds | – | – | full-length myc-tagged Tie2 receptor (from UniProt Q02763 23-1124)
– | – | binds | binds | purified α5ß1 ectodomain protein (from UniProt P08648 42-995; P05556 21-728) (complex)
